This is an account of results in doi:10.1101/2025.08.25.672209.

Protein sequences, listed by entry. Tags and fused reporters are not part of them. Residues count along the entry.
UniProt A2AIR5, residues 27-1135: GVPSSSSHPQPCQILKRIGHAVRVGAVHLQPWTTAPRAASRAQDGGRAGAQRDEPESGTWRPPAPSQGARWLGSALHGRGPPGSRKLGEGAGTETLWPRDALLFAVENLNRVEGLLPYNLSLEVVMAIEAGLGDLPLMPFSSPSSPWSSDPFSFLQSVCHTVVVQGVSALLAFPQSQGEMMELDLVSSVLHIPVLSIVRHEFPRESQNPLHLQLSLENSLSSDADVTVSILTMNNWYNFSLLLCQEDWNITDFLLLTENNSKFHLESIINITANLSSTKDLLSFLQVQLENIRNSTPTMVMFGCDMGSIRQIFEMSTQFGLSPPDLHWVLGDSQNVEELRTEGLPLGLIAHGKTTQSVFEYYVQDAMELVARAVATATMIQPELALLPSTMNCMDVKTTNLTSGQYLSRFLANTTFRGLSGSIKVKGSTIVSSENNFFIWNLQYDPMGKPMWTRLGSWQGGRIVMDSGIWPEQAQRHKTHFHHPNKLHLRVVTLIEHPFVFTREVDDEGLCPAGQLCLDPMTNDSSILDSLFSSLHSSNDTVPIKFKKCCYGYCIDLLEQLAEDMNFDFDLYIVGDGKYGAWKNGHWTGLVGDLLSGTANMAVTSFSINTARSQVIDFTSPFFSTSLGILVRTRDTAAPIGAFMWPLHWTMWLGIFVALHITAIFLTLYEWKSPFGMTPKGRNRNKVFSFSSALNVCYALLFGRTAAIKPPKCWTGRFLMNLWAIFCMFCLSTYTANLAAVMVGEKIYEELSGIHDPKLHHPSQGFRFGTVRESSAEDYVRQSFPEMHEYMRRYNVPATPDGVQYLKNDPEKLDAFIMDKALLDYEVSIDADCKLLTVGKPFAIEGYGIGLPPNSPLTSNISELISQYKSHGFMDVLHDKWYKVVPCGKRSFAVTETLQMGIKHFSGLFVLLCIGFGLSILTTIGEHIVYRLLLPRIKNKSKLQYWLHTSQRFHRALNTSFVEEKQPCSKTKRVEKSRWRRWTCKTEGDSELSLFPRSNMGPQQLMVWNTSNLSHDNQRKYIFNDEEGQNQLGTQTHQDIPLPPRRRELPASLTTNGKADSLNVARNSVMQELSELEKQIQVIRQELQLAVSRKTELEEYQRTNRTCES
UniProt Q01097, residues 27-1482: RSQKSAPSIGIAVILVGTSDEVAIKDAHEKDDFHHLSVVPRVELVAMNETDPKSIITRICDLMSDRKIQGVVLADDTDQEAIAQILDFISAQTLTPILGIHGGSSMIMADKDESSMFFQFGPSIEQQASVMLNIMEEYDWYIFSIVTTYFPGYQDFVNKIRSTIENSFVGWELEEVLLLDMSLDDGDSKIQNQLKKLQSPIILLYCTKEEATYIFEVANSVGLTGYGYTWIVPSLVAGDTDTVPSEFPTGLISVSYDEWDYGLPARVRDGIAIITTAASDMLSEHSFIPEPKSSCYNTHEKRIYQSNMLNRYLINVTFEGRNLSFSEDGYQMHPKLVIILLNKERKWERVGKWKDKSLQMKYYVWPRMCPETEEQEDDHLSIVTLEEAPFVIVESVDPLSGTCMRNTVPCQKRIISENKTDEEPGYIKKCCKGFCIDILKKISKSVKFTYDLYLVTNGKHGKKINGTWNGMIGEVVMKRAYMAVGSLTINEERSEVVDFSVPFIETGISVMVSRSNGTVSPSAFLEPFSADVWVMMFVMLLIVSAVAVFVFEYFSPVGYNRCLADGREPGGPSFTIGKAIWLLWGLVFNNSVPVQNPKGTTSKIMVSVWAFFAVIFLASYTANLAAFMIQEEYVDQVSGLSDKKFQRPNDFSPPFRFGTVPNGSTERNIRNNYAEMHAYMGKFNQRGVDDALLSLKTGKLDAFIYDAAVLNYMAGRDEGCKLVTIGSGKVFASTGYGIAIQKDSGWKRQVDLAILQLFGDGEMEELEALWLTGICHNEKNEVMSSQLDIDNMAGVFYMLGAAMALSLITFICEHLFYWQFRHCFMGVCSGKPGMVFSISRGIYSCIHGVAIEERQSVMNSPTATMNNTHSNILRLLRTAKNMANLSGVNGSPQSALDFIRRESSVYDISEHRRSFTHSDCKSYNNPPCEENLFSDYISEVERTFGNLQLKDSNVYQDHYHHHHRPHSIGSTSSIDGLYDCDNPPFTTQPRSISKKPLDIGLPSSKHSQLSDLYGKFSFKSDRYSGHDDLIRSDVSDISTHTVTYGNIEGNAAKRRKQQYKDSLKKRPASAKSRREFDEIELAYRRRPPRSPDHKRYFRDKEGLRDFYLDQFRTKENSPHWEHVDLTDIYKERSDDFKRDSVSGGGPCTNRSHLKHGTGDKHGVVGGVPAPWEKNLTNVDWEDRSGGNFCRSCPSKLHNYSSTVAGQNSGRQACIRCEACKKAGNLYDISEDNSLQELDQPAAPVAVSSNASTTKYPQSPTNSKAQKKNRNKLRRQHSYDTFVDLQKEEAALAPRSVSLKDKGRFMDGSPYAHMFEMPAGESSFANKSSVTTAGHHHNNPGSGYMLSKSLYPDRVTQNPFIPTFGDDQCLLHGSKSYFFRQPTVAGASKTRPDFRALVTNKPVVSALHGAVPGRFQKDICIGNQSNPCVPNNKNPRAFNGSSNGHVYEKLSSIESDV
UniProt Q03391, residues 28-1323: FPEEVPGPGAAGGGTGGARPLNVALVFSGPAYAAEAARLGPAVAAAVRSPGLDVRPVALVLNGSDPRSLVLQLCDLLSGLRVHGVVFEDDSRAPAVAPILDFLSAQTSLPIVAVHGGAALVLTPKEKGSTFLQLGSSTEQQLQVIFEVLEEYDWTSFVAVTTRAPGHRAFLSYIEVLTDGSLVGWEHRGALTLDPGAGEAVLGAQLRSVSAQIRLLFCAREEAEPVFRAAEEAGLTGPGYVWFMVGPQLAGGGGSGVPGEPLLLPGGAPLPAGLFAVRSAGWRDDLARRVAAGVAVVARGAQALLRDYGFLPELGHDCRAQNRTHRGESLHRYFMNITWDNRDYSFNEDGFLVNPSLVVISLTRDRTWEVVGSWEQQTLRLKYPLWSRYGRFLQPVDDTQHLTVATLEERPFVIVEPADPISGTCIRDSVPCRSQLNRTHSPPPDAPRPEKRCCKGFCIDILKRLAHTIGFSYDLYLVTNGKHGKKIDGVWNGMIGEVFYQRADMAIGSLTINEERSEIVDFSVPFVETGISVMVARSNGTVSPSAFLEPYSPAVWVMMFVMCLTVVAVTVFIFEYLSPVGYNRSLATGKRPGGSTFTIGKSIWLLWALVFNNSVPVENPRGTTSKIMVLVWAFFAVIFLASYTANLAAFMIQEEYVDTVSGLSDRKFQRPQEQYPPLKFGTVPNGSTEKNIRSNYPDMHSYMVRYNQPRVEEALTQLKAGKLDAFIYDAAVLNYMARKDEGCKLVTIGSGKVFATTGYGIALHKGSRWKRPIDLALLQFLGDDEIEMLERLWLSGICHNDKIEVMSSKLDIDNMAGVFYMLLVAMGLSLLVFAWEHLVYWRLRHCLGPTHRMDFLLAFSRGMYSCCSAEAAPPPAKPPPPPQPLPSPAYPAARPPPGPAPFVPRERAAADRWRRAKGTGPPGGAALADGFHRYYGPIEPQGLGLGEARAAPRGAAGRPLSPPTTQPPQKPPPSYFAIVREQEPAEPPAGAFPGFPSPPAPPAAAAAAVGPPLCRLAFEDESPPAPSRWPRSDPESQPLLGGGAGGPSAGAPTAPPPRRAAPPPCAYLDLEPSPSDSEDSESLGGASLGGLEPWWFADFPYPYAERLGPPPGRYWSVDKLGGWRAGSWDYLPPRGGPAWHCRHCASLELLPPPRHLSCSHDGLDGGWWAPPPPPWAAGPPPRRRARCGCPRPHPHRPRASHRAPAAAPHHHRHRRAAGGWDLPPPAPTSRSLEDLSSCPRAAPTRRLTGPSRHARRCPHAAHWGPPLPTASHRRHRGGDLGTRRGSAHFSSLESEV
UniProt Q01098, residues 20-1239: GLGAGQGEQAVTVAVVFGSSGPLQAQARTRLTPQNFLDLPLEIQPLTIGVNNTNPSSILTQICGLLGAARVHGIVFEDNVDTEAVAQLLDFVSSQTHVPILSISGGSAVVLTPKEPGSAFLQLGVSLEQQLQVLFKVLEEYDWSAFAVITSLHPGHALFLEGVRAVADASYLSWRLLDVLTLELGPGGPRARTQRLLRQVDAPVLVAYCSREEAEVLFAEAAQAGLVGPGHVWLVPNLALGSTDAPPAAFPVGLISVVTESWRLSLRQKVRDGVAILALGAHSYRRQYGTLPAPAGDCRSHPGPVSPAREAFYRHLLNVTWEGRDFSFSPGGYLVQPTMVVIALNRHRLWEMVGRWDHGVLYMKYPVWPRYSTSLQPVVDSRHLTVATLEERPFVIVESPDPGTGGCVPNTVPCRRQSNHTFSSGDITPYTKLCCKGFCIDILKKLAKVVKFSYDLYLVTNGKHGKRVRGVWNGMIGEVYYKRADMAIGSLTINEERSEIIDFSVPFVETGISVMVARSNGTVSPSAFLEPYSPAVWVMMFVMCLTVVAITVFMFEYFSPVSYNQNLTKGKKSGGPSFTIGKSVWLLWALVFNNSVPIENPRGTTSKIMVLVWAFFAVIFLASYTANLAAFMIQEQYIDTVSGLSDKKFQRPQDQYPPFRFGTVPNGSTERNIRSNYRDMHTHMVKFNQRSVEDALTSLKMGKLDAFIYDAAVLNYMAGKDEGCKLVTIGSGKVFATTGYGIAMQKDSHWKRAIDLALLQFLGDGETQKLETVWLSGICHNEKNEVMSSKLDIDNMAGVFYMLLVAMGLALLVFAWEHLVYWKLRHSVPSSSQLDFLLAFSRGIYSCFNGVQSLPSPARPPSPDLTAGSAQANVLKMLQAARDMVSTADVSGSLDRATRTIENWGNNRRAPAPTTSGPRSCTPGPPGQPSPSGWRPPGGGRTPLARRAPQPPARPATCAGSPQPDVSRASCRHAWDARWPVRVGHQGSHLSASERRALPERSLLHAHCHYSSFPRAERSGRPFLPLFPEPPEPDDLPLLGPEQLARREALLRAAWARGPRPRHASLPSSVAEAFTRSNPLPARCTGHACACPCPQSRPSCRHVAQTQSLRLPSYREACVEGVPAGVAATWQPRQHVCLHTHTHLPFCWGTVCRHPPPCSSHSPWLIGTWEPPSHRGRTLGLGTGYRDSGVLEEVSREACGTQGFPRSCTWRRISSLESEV

These are yes or no findings as the source states them, for the method shown. In cells and extracts the contact can be indirect. Some entries that bind do so weakly or less than the wild type.

The assay addresses GluN3A, endogenous in mouse brain (mouse (endogenous in cortex and hippocampus)) (UniProt A2AIR5). Put plainly: co-IP.
Consider “GluN2B, endogenous in mouse brain (from UniProt Q01097 27-1482) (receptor)”, for which the binding result was “binds”.
The value for “GluN2D, endogenous in mouse brain (from UniProt Q03391 28-1323) (receptor)” was “no binding”; that for “GluN2C, endogenous in mouse brain (from UniProt Q01098 20-1239) (receptor)” was “no binding”.
